# Source: PubChem BioAssay AID651660 (Broad Institute, 2012)
# Chains of the proteins cited; added tags and fusions are not shown. Lines headed by an entry give the natural chain unless they say otherwise; changes in a name come on top.
# UniProt P43351: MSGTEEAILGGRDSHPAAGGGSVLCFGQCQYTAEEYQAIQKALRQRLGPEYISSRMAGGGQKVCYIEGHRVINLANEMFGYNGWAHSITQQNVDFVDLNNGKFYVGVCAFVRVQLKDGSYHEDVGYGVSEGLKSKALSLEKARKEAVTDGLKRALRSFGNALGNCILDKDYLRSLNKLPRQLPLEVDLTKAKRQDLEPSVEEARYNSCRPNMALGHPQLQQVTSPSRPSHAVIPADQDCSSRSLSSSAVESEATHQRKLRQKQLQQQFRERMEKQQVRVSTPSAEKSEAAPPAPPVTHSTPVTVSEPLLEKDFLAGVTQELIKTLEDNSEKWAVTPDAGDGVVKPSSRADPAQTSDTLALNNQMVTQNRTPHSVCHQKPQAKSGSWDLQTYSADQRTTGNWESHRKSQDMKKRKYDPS
# Several values for one entry are separate records, joined by “and”; a condition that tells them apart may be missing. Identical values can stand only once. Screen size: about 1,900 compounds; about 15 (0.8%) were called active.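 Rule for the calls: active = every replicate shows at least 50% inhibition; inconclusive = mean inhibition at least 50% but some replicate below; inactive = the rest.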 This is one part of the list. Residues, ends and D or L forms follow the SMILES beside them.
# Target: DNA repair protein RAD52 homolog (Homo sapiens) (UniProt P43351)
# Assay: RAD52 ssDNA annealing inhibitors, primary screen, biochemical, FRET, single point (AID 651660);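 note: 0% = median of neutral control wells and 100% = median of positive control wells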
# Settings: Recombinant RAD52 ssDNA annealing, FRET fluorescence, 30 min; at 18.7 µM; hits give high values
row,Structure (SMILES),inhibition
1,Cc1cccc(C)c1NC1=NCCCS1,inactive: -3.1%
2,CCNC(=O)[C@H]1O[C@@H](n2cnc3c(N)ncnc32)[C@H](O)[C@@H]1O,inactive: -1.79%
3,CCn1ccnc1CN1CCCC(C(=O)c2cc(F)ccc2OC)C1 (stereo not drawn),inactive: -1.46%
4,C=C1[C@@H](C)[C@H]2[C@H](Cc3ccccc3)NC(=O)[C@]23OC(=O)/C=C/[C@H](O)CCC[C@@H](C)C/C=C/[C@H]3[C@@H]1O,inactive: -0.777%
5,C[N+]1(C)[C@@H]2CC[C@H]1CC(OC(=O)C(CO)c1ccccc1)C2 (stereo partly drawn),inactive: -3.53%
6,CCOC(=O)C1=C(C)OC(N)=C(C(=O)OCC)[C@@]12C(=O)N(CC(N)=O)c1ccccc12,inactive: 8.41%
7,CC/C(=C\C=C\[C@@H]1C=C[C@@H]2CCC[C@H]2[C@@H]1C(=O)c1ccc[nH]1)[C@@H]1O[C@@H]([C@@H](C)C(=O)O)CC[C@@H]1C,inactive: -21.4%
8,Cc1nc2ccccc2c(=O)n1-c1ccc(C(=O)O)cc1,inactive: -2.62%
9,Cc1c2ccncc2c(C)c2c1[nH]c1ccccc12,inactive: 12.7%
10,COc1cc(/C=C2\C(=O)NC(=O)N(c3ccccc3)C2=O)c([N+](=O)[O-])cc1OC,inactive: -77.9%
11,NC(=O)CN1CCCC1=O,inactive: -1.58%
12,Cc1cc(OCc2cc(C(=O)O)oc2C)c2c3c(c(=O)oc2c1)CCCC3,inactive: -16.7%
13,O=C1NC(=O)C2(Cc3ccccc3N3CCCC32)C(=O)N1c1ccc(Cl)cc1 (stereo not drawn),inactive: -34%
14,CCOC(=O)C(C)Oc1cc(C)cc2oc(=O)c3c(c12)CCCC3 (stereo not drawn),inactive: -11.6%
15,O=C1C(=O)c2ccccc2-c2ccccc21,inactive: -11%
16,CN1C2CCC1CC(OC(=O)CCN1CCCC1)C2 (stereo not drawn),inactive: -2.12%
17,C[N+](C)(C)Cc1ccccc1,inactive: -0.327%
18,O=c1[nH]c(=S)n(-c2ccccc2)c(O)c1/C=N/N1CCCCC1c1cccnc1 (stereo not drawn),inactive: -92.1%
19,CN1CC[C@@]23CCCC[C@@H]2[C@@H]1Cc1ccc(O)cc13,inactive: 1.8%
20,CC(C)(C)NCC(O)c1cc(Cl)c(N)c(Cl)c1 (stereo not drawn),inactive: -12.2%
21,CN1C2CCC1CC(OC(=O)c1ccc(Cl)cc1)C2 (stereo not drawn),inactive: -12.3%
22,CCOC(=O)c1cc2c(cn1)[nH]c1ccccc12,inactive: 11.1%

row,Structure (SMILES),inhibition
1,COc1ccc(Cc2nccc3cc(OC)c(OC)cc23)cc1OC,inactive: 19%
2,CC1CCC[C@H](O)CCCCCc2cc(O)cc(O)c2C(=O)O1 (stereo partly drawn),inactive: 15.5%
3,CC12CN3CC(C)(CN(C1)C3c1cccs1)C2O (stereo not drawn),inactive: -10.9%
4,Clc1ccc(C2NCCc3[nH]cnc32)cc1 (stereo not drawn),inactive: 16.7%
5,COP(=S)(OC)SCN1C(=O)c2ccccc2C1=O,inactive: 5.59%
6,COC1=CC(=O)OC(/C=C/c2ccccc2)C1 (stereo not drawn),inactive: 2.33%
7,C[C@H]1CCC[C@H](O)CCCCCc2cc(O)cc(O)c2C(=O)O1,inactive: -0.964%
8,CCN1CC2(COC(=O)c3ccccc3N)CCC(OC)C34C5CC6C(OC)CC(O)(C5C6OC)C(O)(C(OC)C23)C14 (stereo not drawn),inactive: 5.95%
9,COc1ccc(OC)c([C@@H](O)[C@H](C)NC(C)(C)C)c1,inactive: -7.88%
10,CC(C)NC(C)C(=O)c1ccc2ccccc2c1 (stereo not drawn),inactive: 5.99%
11,COc1ccc2c3c([nH]c2c1)C(C)=NCC3,inactive: 9.54%
12,Fc1ccc(C(OCCN2CCCC2)c2ccc(Br)cc2)cc1 (stereo not drawn),inactive: 9.47%
13,[N-]=[N+]=CC(=O)OC[C@H](N)C(=O)O,inactive: -2.26%
14,O=S(=O)(c1ccc(F)cc1)N1CCCCC1c1cccnc1 (stereo not drawn),inactive: 4.17%
15,CC(=O)C1=C(C)OC(N)=C(C(=O)OC(C)C)C12C(=O)Nc1ccccc12 (stereo not drawn),inactive: 2.27%
16,C[N+]1(C)CCN(c2ccccc2)CC1,inactive: 0.463%
17,CC(C)CC12CN3CCN(CC(C3)C1O)C2 (stereo not drawn),inactive: -12.2%
18,CC12CCC3C(CC=C4CC5(CCC43C)OCCO5)C1CCC2=O (stereo not drawn),inactive: -3.98%
19,CC(C)[C@@]1(NC(=O)[C@@H]2C[C@@H]3c4cccc5[nH]cc(c45)C[C@H]3N(C)C2)O[C@@]2(O)[C@@H]3CCCN3C(=O)[C@H](Cc3ccccc3)N2C1=O,inactive: -26.7%
20,CCOc1ccc(C2C(C#N)=C(N)Oc3c2c(=O)oc2ccccc32)cc1 (stereo not drawn),inactive: -2.8%
21,COc1ccc(C(=O)N2CCCC2=O)cc1,inactive: 0.401%
22,O=C(O)CCCc1ccc(N(CCCl)CCCl)cc1,inactive: -14.6%

row,Structure (SMILES),inhibition
1,C[N+]1(C)CCOC(O)(c2ccc(-c3ccc(C4(O)C[N+](C)(C)CCO4)cc3)cc2)C1 (stereo not drawn),active: 61.8%
2,Nc1ccncc1,inactive: 0.701%
3,C[C@]12CCC(=O)C=C1CC[C@@H]1[C@@H]2C(=O)C[C@]2(C)C(=O)CC[C@@H]12,inactive: -2.13%
4,NNC(=O)c1ccc(Cl)cc1,inactive: -6.99%
5,COc1cc2c3cc1Oc1cc(ccc1O)C[C@@H]1c4c(cc(OC)c(O)c4Oc4ccc(cc4)C[C@H]3N(C)CC2)CCN1C,active: 77.6%
6,CCNC(=S)N(C)CCc1cc2c(c(OC)c1C=C1C(=O)N(C)C(=O)N(C)C1=O)OCO2,inactive: -15%
7,Cc1cc(Cl)ccc1OCC(=O)O,inactive: -15.5%
8,CN1C(=O)N(C)C(=O)C2(Cc3ccccc3N3CCOCC32)C1=O (stereo not drawn),inactive: -0.534%
9,CC(CCc1ccccc1)NC(C)C(O)c1ccc(O)cc1 (stereo not drawn),inactive: 4.36%
10,CC(C)C[C@H](NC(=O)[C@@H]1CCCN1C(=O)[C@@H](N)Cc1ccc(O)cc1)C(=O)NCC(N)=O (H-YPLG-NH2),inactive: 5.56%
11,C[C@H](O)[C@H]1CC[C@H]2[C@@H]3CCC4=CC(=O)CC[C@]4(C)[C@H]3CC[C@]12C,inactive: 5.86%
12,O=C1CN=C(c2ccccc2F)c2cc(Cl)ccc2N1,inactive: 2.44%
13,Clc1ccc(CSC(Cn2ccnc2)c2ccc(Cl)cc2Cl)cc1 (stereo not drawn),inactive: 49.4%
14,CCCC[N+]1(C)[C@@H]2CC(OC(=O)[C@H](CO)c3ccccc3)C[C@H]1[C@@H]1O[C@@H]12 (stereo partly drawn),inactive: 2.96%
15,CC(=O)OC1C2CCC1C(N1CCCC1)CC2 (stereo not drawn),inactive: -8.19%
16,C[C@]12CC[C@@H](O)C[C@@H]1CC[C@@H]1[C@@H]2CC[C@]2(C)[C@@H](O)CC[C@@H]12,inactive: -0.831%
17,OC1CCCCC1N1CCC(c2ccccc2)CC1 (stereo not drawn),inactive: -36.8%
18,COc1ccc2c(c1)CC1(CN2C)C(=O)NC(=O)N(CCc2ccccc2)C1=O (stereo not drawn),inactive: -27%
19,C[C@H]1CCCC(=O)CCC/C=C/c2cc(O)cc(O)c2C(=O)O1,inactive: 0.365%
20,Cc1ccsc1C(=O)C1CCCN(Cc2cc3ccccc3o2)C1 (stereo not drawn),inactive: -1.76%
21,Cc1ccc(-n2c(C)cc(/C=C3/C(=O)NC(=O)N(C)C3=O)c2C)cc1,inactive: -22%
22,CC(Cc1ccccc1)NCC(=O)Nc1cc(N(C)C)nc2ccccc12 (stereo not drawn),inactive: 19%

row,Structure (SMILES),inhibition
1,CC[C@@H]1C(=O)OC[C@@H]1Cc1cncn1C,inactive: -7.49% and inactive: -2.25%
2,C#CCN(C)C(C)Cc1ccccc1 (stereo not drawn),inactive: 4.83%
3,O=c1[nH]c2ccccc2n1CCCN1CCC(n2c(=O)[nH]c3cc(Cl)ccc32)CC1,inactive: 13.1%
4,C[C@@H]1O[C@@H](O[C@H]2C[C@@H](O)[C@]3(CO)[C@H]4[C@H](O)C[C@]5(C)[C@@H](C6COC(=O)C6)CC[C@]5(O)[C@@H]4CC[C@]3(O)C2)[C@H](O)[C@H](O)[C@H]1O (stereo partly drawn),inactive: -0.228%
5,CC(C)[N+](C)(CCC(C(N)=O)(c1ccccc1)c1ccccc1)C(C)C,inactive: -5.25%
6,C#C[C@]1(O)CC[C@H]2[C@@H]3CCC4=CC(=O)CC[C@]4(C)[C@H]3CC[C@@]21C,inactive: -2.41%
7,O=C1CCCC2=C1C(c1cccnc1)Nc1ccccc1N2 (stereo not drawn),inactive: -8.7%
8,CC12CC[C@H]3[C@@H](CCC4(O)C[C@H](O)CCC34/C=N/NC(=O)Cc3ccccc3)C1(O)CCC2C1=CC(=O)OC1 (stereo partly drawn),inactive: 8.4%
9,CC12CN3CC(C)(CN(C1)C31CCOCC1)C2=O,inactive: -24.6%
10,C[C@]12CC[C@@H](O)C[C@@H]1CC[C@@H]1[C@@H]2CC[C@]2(C)C(=O)CC[C@@H]12,inactive: 2.22%
11,CC[C@]12C=CCN3CCC4(c5cc(Br)c(OC)cc5N(C)C4[C@@](O)(C(=O)OC)[C@@H]1OC(C)=O)C32 (stereo partly drawn),inactive: 6.35%
12,CC12CCC3C(CC=C4CC(O)CCC43C)C1C/C(=C\c1cccc(F)c1)C2=O (stereo not drawn),inactive: -7.99%
13,CCC1(c2ccccc2)C(=O)N(COC)C(=O)N(COC)C1=O,inactive: -5.47%
14,O=c1cccc2n1C[C@H]1C[C@@H]2CN2CCCC[C@@H]12,inactive: 2.56%
15,NCC1(c2ccc3c(c2)OCCO3)CCCC1,inactive: -3.46%
16,CN1C(=O)CN=C(c2ccc(Cl)cc2)c2cc(Cl)ccc21,inactive: 1.83%
17,O=C1CC[C@@]2(O)[C@H]3Cc4ccc(O)c5c4[C@@]2(CCN3CC2CC2)[C@H]1O5,inactive: -7.66%
18,C[N+]1(C)[C@@H]2CC(OC(=O)[C@H](CO)c3ccccc3)C[C@H]1[C@@H]1O[C@@H]12 (stereo partly drawn),inactive: -3.35% and inactive: -6.65%
19,S=C1NCCN1,inactive: -9.58%
20,C[N+]1(C)C2CCC1CC(OC(=O)C(CO)c1ccccc1)C2 (stereo not drawn),inactive: -3.1%
21,CC(C)(C)C(O)C(Oc1ccc(Cl)cc1)n1cncn1 (stereo not drawn),inactive: -119%
22,C[C@H]1CC[C@@]2(C)[C@@H](CC[C@@H]3[C@@H]2CC[C@]2(C)[C@@H](O)CC[C@@H]32)C1,inactive: 6.01%
